Assay results: the supplement of paper PMC8728848
The list shows a part of the results.

Tests used:
Assay in all cases: glycan array binding signal (z-score within array); higher = stronger binding
Conditions in all cases: glycan notation: IUPAC condensed, linker removed
[1] = target: Fuc(a1-2)Gal6S(b1-3)GlcNAc6S
Procedure, shortened: (§1)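 Glycan array binding is given as a within-array Z-score, which can be read as non-binding when negative. The arrays, 3228 of them, came from the Consortium for Functional Glycomics database and were retained only where the protein sequence was available. Z-scores were averaged across arrays of the same protein sequence at different concentrations or buffers and across linkers.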

Fuc(a1-2)Gal6S(b1-4)Glc = target: Fuc(a1-2)Gal6S(b1-4)Glc
Procedure, shortened: as §1

[2] = target: Fuc(a1-2)Gal6S(b1-4)Glc6S
Procedure, shortened: as §1

Fuc(a1-2)[Gal(a1-3)]Gal = target: Fuc(a1-2)[Gal(a1-3)]Gal
Procedure, shortened: as §1

[3] = target: Fuc(a1-2)[Gal(a1-3)]Gal(b1-3)GalNAc
Procedure, shortened: as §1

[4] = target: Fuc(a1-2)[Gal(a1-3)]Gal(b1-3)GalNAc(b1-3)Gal(a1-4)Gal(b1-4)Glc
Procedure, shortened: as §1

[5] = target: Fuc(a1-2)[Gal(a1-3)]Gal(b1-3)GlcNAc
Procedure, shortened: as §1

[6] = target: Fuc(a1-2)[Gal(a1-3)]Gal(b1-3)GlcNAc(b1-2)Man(a1-3)[Fuc(a1-2)[Gal(a1-3)]Gal(b1-3)GlcNAc(b1-2)Man(a1-6)]Man(b1-4)GlcNAc(b1-4)GlcNAc
Procedure, shortened: as §1

[7] = target: Fuc(a1-2)[Gal(a1-3)]Gal(b1-3)GlcNAc(b1-2)Man(a1-3)[Fuc(a1-2)[Gal(a1-3)]Gal(b1-3)GlcNAc(b1-2)Man(a1-6)]Man(b1-4)GlcNAc(b1-4)[Fuc(a1-6)]GlcNAc
Procedure, shortened: as §1

[8] = target: Fuc(a1-2)[Gal(a1-3)]Gal(b1-3)GlcNAc(b1-3)GalNAc
Procedure, shortened: as §1

[9] = target: Fuc(a1-2)[Gal(a1-3)]Gal(b1-3)GlcNAc(b1-6)GalNAc
Procedure, shortened: as §1

[10] = target: Fuc(a1-2)[Gal(a1-3)]Gal(b1-4)Glc
Procedure, shortened: as §1

[11] = target: Fuc(a1-2)[Gal(a1-3)]Gal(b1-4)GlcNAc
Procedure, shortened: as §1

[12] = target: Fuc(a1-2)[Gal(a1-3)]Gal(b1-4)GlcNAc(b1-2)Man
Procedure, shortened: as §1

[13] = target: Fuc(a1-2)[Gal(a1-3)]Gal(b1-4)GlcNAc(b1-2)Man(a1-3)[Fuc(a1-2)[Gal(a1-3)]Gal(b1-4)GlcNAc(b1-2)Man(a1-6)]Man(b1-4)GlcNAc(b1-4)GlcNAc
Procedure, shortened: as §1

[14] = target: Fuc(a1-2)[Gal(a1-3)]Gal(b1-4)GlcNAc(b1-2)Man(a1-3)[Fuc(a1-2)[Gal(a1-3)]Gal(b1-4)GlcNAc(b1-2)Man(a1-6)]Man(b1-4)GlcNAc(b1-4)[Fuc(a1-6)]GlcNAc
Procedure, shortened: as §1

[15] = target: Fuc(a1-2)[Gal(a1-3)]Gal(b1-4)GlcNAc(b1-3)GalNAc
Procedure, shortened: as §1

[16] = target: Fuc(a1-2)[Gal(a1-3)]Gal(b1-4)GlcNAc(b1-3)[Fuc(a1-2)[Gal(a1-3)]Gal(b1-4)GlcNAc(b1-6)]GalNAc
Procedure, shortened: as §1

[17] = target: Fuc(a1-2)[Gal(a1-3)]Gal(b1-4)GlcNAc(b1-6)GalNAc
Procedure, shortened: as §1

[18] = target: Fuc(a1-2)[Gal(a1-3)]Gal(b1-4)[Fuc(a1-3)]Glc
Procedure, shortened: as §1

[19] = target: Fuc(a1-2)[Gal(a1-3)]Gal(b1-4)[Fuc(a1-3)]GlcNAc
Procedure, shortened: as §1

[20] = target: Fuc(a1-2)[Gal(a1-3)]Gal(b1-4)[Fuc(a1-3)]GlcNAc(b1-3)GalNAc
Procedure, shortened: as §1

B1: PX14404-bvu-534-26-534 (Bacteroides vulgatus) (protein)
chain: EDPRGKLTPENFFSTQDELNMSIYALYQKVNLSQVYTNMQLPQWQGDDITTNPGSNKQPAAEMDKFAAANNNKGVKDAWNMHYAIVKAANLIIQGASKTPTTQDEINIALGQAKFWRAYAYFTLVRLWGPLPMNLDNVNDDYTKPLSPVEEVYGHIVQDLTEAEAVLPTGYSGSPRFLNGVNVYVTRQAAKSTLAAVYMAMAGWPMNKTEYYAKAAEKAKEVIEGVNRGEYEYKLDKDYKDVYAMSNNYNNETVLGINYSPFVDWAQDSELTSCNQFESLGGWGDAWGEIRFWKEFPDGPRKDATYDPKIRLKDGTLVDWWELKEDGTPVVPEHHPMFSIFSVNWDPASKVNTSAPYDYTKPASQNMCNDHRHRIIRYSEVLLWYAEAKARTGQTDELAFKCLNDVRERAGLEPLTGLSADDLAEAAYKEHGWEVAGYWVALVTRRADQFRMNRLKDTFKERAENTAVEVADGILVKESVEYTNRTWSDNLMYLPYPDMDSQKNPNLVR
glycan array binding signal (z-score) [1]: 0.503 | glycan array binding signal (z-score) (Fuc(a1-2)Gal6S(b1-4)Glc): 2.73 | glycan array binding signal (z-score) [2]: 1.47 | glycan array binding signal (z-score) (Fuc(a1-2)[Gal(a1-3)]Gal): -0.5 | glycan array binding signal (z-score) [3]: 0.15 | glycan array binding signal (z-score) [4]: -0.755 | glycan array binding signal (z-score) [5]: 1.29 | glycan array binding signal (z-score) [6]: -0.572 | glycan array binding signal (z-score) [7]: 0.31 | glycan array binding signal (z-score) [8]: -0.003 | glycan array binding signal (z-score) [9]: -0.306 | glycan array binding signal (z-score) [10]: 0.113 | glycan array binding signal (z-score) [11]: -0.205 | glycan array binding signal (z-score) [12]: -0.163 | glycan array binding signal (z-score) [13]: 0.087 | glycan array binding signal (z-score) [14]: 1.91 | glycan array binding signal (z-score) [15]: -1.01 | glycan array binding signal (z-score) [16]: 0.311 | glycan array binding signal (z-score) [17]: 0.709 | glycan array binding signal (z-score) [18]: -1.1 | glycan array binding signal (z-score) [19]: -0.768 | glycan array binding signal (z-score) [20]: 0.147
